These are yes or no findings as the source states them, for the method shown. Binding seen in cells or lysates may run through a third protein. Some entries that bind do so weakly or less than the wild type.

By UniProt entry, the sequences of proteins in these tests, tags left out. Where a name states a change or a piece, a line headed by the entry shows the natural chain unless it says otherwise.
UniProt Q99612: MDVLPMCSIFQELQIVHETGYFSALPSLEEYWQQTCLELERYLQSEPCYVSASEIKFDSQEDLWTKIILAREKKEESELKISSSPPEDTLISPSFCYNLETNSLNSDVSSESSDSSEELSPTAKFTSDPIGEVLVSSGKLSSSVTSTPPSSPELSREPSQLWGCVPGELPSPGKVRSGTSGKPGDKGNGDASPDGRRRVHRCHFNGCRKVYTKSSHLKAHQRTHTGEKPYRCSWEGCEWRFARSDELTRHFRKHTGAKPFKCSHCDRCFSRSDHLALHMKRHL

Experiment [1] deals with HA-wtKLF6 (wild type, full length KLF6 with an additional HA tag) (human) (UniProt Q99612). Briefly: co-immunoprecipitation from cotransfected 293T cells, Western blot. In general terms: A western blot detects proteins with antibodies after separation by electrophoresis.
Experiment [2] shares this target. In words: co-immunoprecipitation from cotransfected 293T cells (FLAG/HA beads), Western blot.

With “FLAG-KLF6SV2 (FLAG-tagged KLF6 splice variant-2) (from UniProt Q99612 1-283)”, the binding result in experiment [1] and in experiment [2] was “binds” throughout.

The record behind these values is patent US20130035243A1.
